The whole screen tested about 230,000 compounds, of which about 310 (0.13%) were called active. This list was built around the results that the source calls inconclusive (neither active nor inactive); the mix of calls is not that of the screen. Calls come from the whole dose curve; as a rule, active = well fitted activation curve with a large enough effect; inconclusive = small, poorly fitted or top-dose-only effect; inactive = no such curve, though single readings can be large or run the other way. Potencies beside an inconclusive call are fits to weak or partial responses and may not hold up.
Experiment: qHTS Multiplex Assay to Identify Dual Action Probes in a Cell Model of Huntington: Cytoprotection (ATP); note: nearly all actives have a fitted effect of over 45% in size;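 for cytoprotection (ATP increase): toxic huntingtin expression switched on by the ecdysone agonist tebufenozide; % of control where 0% means no effect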
Settings: PC12 HTT-Q103 induced, ATP luminescence, 40 h; cytoprotection (ATP increase): at 56.4 µM (top of the series) unless noted
Outline: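 Compounds added alongside 100 nM tebufenozide, which induces toxic Q103 huntingtin exon 1-GFP in stable PC12 cells; surviving cells quantified by luminescent ATP measurement. Medium: phenol red-free DMEM, 5% equine and 5% calf serum.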
Potency is the fitted concentration of half-maximal effect.

Structure (SMILES)	Potency	cytoprotection (ATP increase)
c1ccc2c(Cc3c[nH]c4ccccc34)c[nH]c2c1	inconclusive: 1.26 µM [activator, single point]	
C[C@H]1Cc2c(COc3ccccc3)nc3c(c2CO1)CN(C(=O)Cc1cccs1)CC3		inactive: -13.8% [at 10 µM]
COC(=O)N[C@@H](/C=C/c1ccccc1)C[N+](=O)[O-]	inconclusive: 4.47 µM [activator, single point]	
COc1ccccc1N(C)S(=O)(=O)c1ccc(C(=O)OCC(=O)NCC(F)(F)F)cc1	inconclusive: 0.562 µM [activator, full curve, poor fit]	
CC(=O)Oc1ccc(S(=O)(=O)c2ccc(OC(C)=O)cc2)cc1	inconclusive: 1 µM [activator, single point]	
CC(C)Oc1ccc(C(=O)NC(=S)N2CCOCC2)cc1	inconclusive: 0.794 µM [activator, partial curve]	
CCOC(=O)/C(=N/Nc1ccccc1)Sc1nnc(CCc2ccccc2)n1-c1ccccc1	inconclusive: 3.16 µM [activator, partial curve]	
COc1ccc(NC(=O)C(c2ccccc2)N2CCN(c3ccccn3)CC2)cc1Cl (stereo not given)	inconclusive: 1.41 µM [activator, partial curve]	
O=C(CSc1nnc(-c2cccs2)n1-c1ccccc1)N1CCN(C(=O)c2ccco2)CC1	inconclusive: 3.16 µM [activator, partial curve]	
CCC1Nc2cc(Cl)c(S(N)(=O)=O)cc2S(=O)(=O)N1 (stereo not given)	inconclusive: 35.5 µM [activator, single point]	
COc1cccc(OC)c1C(=O)Nc1nnc(-c2cccs2)s1		inactive: 9.9% [at 10 µM]
CCOc1ccccc1C(=O)N[C@H](C(=O)Nc1nc2c(s1)CCCC2)C(C)C	inconclusive: 7.08 µM [activator, partial curve, poor fit]	
O=C(CCc1nc(-c2ccccc2Cl)no1)NCC1CCCO1 (stereo not given)	inactive	
CC[C@@H](Nc1ncnc2nc[nH]c12)C(=O)O		inactive: -9.76% [at 10 µM]
Cc1cc2c(ncn2C)c(NS(=O)(=O)c2ccc(F)cc2)c1C	inconclusive: 35.5 µM [activator, single point]	
COc1ccc(CC(NC(C)=O)C(=O)NC2CCN(C(=O)Nc3ccccc3Cl)CC2)cc1OC (stereo not given)	inconclusive: 0.891 µM [activator, full curve, poor fit]	
O=C(NNC(=S)Nc1ccccc1)NNC(=S)Nc1ccccc1	inconclusive: 17.8 µM [activator, single point]	
Cc1c(C(=O)NC(C(C)C)C(C)C)cccc1[N+](=O)[O-]		inactive: -5.58% [at 10 µM]
Cc1nc2cnc(N3CCNCC3)nc2n(C2CC2)c1=O	inconclusive: 3.16 µM [activator, full curve, poor fit]	
Cc1cccc(NC(=O)c2ccccc2[N+](=O)[O-])n1	inactive	
O=C(NCCN1CCOCC1)c1ccc([N+](=O)[O-])cc1[N+](=O)[O-]	inactive	
FC(F)(F)c1nnc2c(Sc3ccccn3)nc3ccccc3n12	active: 11.2 µM	
COC(=O)C(C(C)=O)C(NC(=O)OC(C)(C)C)c1ccccc1 (stereo not given)	inconclusive: 3.98 µM [activator, single point]	
O=C(N=Nc1c(O)n(Cc2ccccc2)c2ccccc12)c1ccc(O)cc1		inactive: -0.229% [at 10 µM]

Structure (SMILES)	Potency	cytoprotection (ATP increase)
CCOC(=O)CN1C(=O)N[C@@H](CCc2ccccc2)[C@H](C(C)=O)[C@H]1C	inconclusive: 0.708 µM [activator, single point]	
Cc1ccccc1NC(=O)/C=C1\SC(=O)NC1=O	inconclusive: 20 µM [activator, partial curve]	
COC(=O)c1c(NC(=S)Nc2ccccc2Cl)sc(C)c1C	inactive	
Clc1ccc(Nc2ccccc2)nn1		inactive: 4.5% [at 10 µM]
COC(=O)[C@H](Cc1ccccc1)NC(=O)N(C)Cc1ccccc1		inactive: 41% [at 10 µM]
COc1ccc(NC(=O)CC2SC(=NCC3CCCO3)NC2=O)c([N+](=O)[O-])c1 (stereo not given)	inconclusive: 0.562 µM [activator, partial curve, poor fit]	
CC(=O)c1nnn(-c2cccc([N+](=O)[O-])c2)c1C	inactive	
CCOc1c2ccc(C(=O)NCc3ccc(C)cc3)cc2nn1CC	inconclusive: 1.12 µM [activator, single point]	
CCOC(=O)c1nn(-c2ccc(Cl)cc2)c2nc(Nc3ccccc3)cc(=O)n12	inactive	
COC(=O)[C@@H]1CC2=CC(=O)CC[C@]2(C)[C@@]23O[C@@H]2C[C@@]2(C)[C@H](CC[C@@]24CCC(=O)O4)[C@@H]13	inconclusive: 8.91 µM [activator, partial curve, poor fit]	
Cc1ccc(C2=NN3C(C(=O)c4ccccc4)Oc4ccccc4C3C2)cc1 (stereo not given)	inconclusive: 0.501 µM [activator, partial curve]	
COc1ccc(Oc2ncc3nc(-c4cc(F)cc(F)c4)c(=O)n(C[C@H]4CCCO4)c3n2)cc1	inactive	
CC1=CC(C)(C)Nc2ccc(C)cc21	inactive	
Cc1noc(C)c1CS(=O)(=O)Cc1ccc(Cl)cc1	inconclusive: 0.562 µM [activator, full curve, poor fit]	
COc1ccc(CCNC(=O)c2ccc(Cl)cc2)cc1OC	inactive	
COC(=O)c1ccc(C(=O)OC)c(NC(=O)COC(=O)C2CCC(C(C)(C)C)CC2)c1 (stereo not given)	inconclusive: 1.26 µM [activator, single point]	
Cc1ccc(OCC(=O)NN2C(=O)c3ccccc3C2=O)cc1	inactive	
CNc1nc(N)c([N+](=O)[O-])c(NCCO)n1	inconclusive: 2.51 µM [activator, single point]	
O=C(/C=C\c1ccc2c(c1)OCO2)c1ccc(F)cc1	inconclusive: 1.26 µM [activator, partial curve, poor fit]	
CCCn1c(CC)nc([N+](=O)[O-])c1Sc1ccc(C)cc1	inconclusive: 12.6 µM [activator, single point]	
COc1ccc(Cn2nnnc2C(C(C)C)N2CCN(c3ccccc3OC)CC2)cc1 (stereo not given)		inactive: -4.4% [at 10 µM]
CCCCCCCCCCCCCCCCN	inconclusive: 3.98 µM [activator, full curve]	
CN(CCOc1cccc(C(F)(F)F)c1)Cc1ccccc1	inconclusive: 0.708 µM [activator, single point]	
CC1(C)Cc2nc3nc(SCC(=O)NCCc4ccccc4)n(-c4ccccc4)c(=O)c3cc2CO1	inconclusive: 22.4 µM [activator, single point]	

Structure (SMILES)	Potency	cytoprotection (ATP increase)
COC(=O)C1=C(C)NC(C)=C(C(=O)OCCN2CCN(C(c3ccccc3)c3ccccc3)CC2)C1c1cccc([N+](=O)[O-])c1 (stereo not given)	inactive	
Cc1[nH]c2ccccc2c1/C=C(\C#N)S(=O)(=O)c1ccccc1	inactive	
O=C(NC(=S)NCCCN1CCOCC1)c1ccc([N+](=O)[O-])cc1	inconclusive: 3.98 µM [activator, single point]	
O=C(CNC(=O)c1ccc2c(c1)OCCO2)N/N=C/c1ccc(O)cc1O		inactive: 15.7% [at 10 µM]
CC(C)[C@H](NC(=O)c1ccc(F)cc1)C(=O)NC1=NCCS1	inconclusive: 3.55 µM [activator, single point]	
Cc1nnc(SCC(=O)Nc2nnc(SCc3cccc(Br)c3)s2)s1	inconclusive: 5.62 µM [activator, single point]	
CCO[C@H](c1cc(OC)cc([N+](=O)[O-])c1OC)[C@H](C)/C=C\CC(=O)OC	inconclusive: 1.26 µM [activator, single point]	
COc1ccc(NC(=S)Nc2ccccc2)cn1	inconclusive: 5.62 µM [activator, single point]	
COC(=O)c1ccccc1N(C)S(=O)(=O)c1cc2c(cc1C)OCC(=O)N2	inconclusive: 0.631 µM [activator, single point]	
O=C(Nc1ccc(C2CC2(Cl)Cl)cc1)c1ccccc1Br (stereo not given)		inactive: -17.5% [at 10 µM]
N=C1C(c2nc3ccccc3s2)=C(O)CN1Cc1ccco1	inactive	
CC(C)(C)NC[C@@H](O)COc1nsnc1N1CCOCC1	inconclusive: 0.126 µM [activator, full curve]	
Cc1c(C)c2c(c(C)c1O)CCC(C)(COc1ccc(CC3SC(=O)NC3=O)cc1)O2 (stereo not given)	inconclusive: 0.224 µM [activator, full curve]	
COc1ccc2c(c1)OC/C(=C\c1ccc(OC)c(O)c1)C2=O	active: 6.31 µM	
COc1cc(/C=C(/C#N)c2ccc(F)cc2)ccc1Oc1ccc([N+](=O)[O-])cn1	inconclusive: 2 µM [activator, partial curve]	
CC1Cc2ccccc2N1C(=O)Cn1cnc2ccccc21 (stereo not given)	inconclusive: 7.08 µM [activator, full curve, poor fit]	
NCCNCCNCCNCCN	inconclusive: 7.94 µM [activator, single point]	
COc1ccccc1CNc1ncncc1-c1ccccc1C	inactive	
C/C(CCN1CCCCc2nc(C)c(C)cc21)=N\OC[C@@H](O)COCc1ccco1	inconclusive: 0.282 µM [activator, partial curve]	
Clc1cnccn1	inconclusive: 14.1 µM [activator, single point]	
O=C(CSC(=S)N1CCCCC1)Nc1nc(-c2ccccc2)c(-c2ccccc2)o1	inactive	
CCOc1ccc2[nH]c(O)c(NC(C)=O)c2c1		inactive: -8.25% [at 10 µM]

Among those listed so far, these contain bromine.
Structure (SMILES)	Potency	cytoprotection (ATP increase)
Cc1nnc(SCC(=O)Nc2nnc(SCc3cccc(Br)c3)s2)s1	inconclusive: 5.62 µM [activator, single point]	
O=C(Nc1ccc(C2CC2(Cl)Cl)cc1)c1ccccc1Br (stereo not given)		inactive: -17.5% [at 10 µM]

— PubChem BioAssay AID1471 (National Center for Advancing Translational Sciences (NCATS), 2008)
